Experimental data from PMC5677968, “Familial STAG2 germline mutation defines a new human cohesinopathy” (NPJ Genomic Medicine, 2017).
Changes are numbered by the printed parent chain. Results are given in words; binding and its absence hold for the method and conditions named. Binding seen in cells or lysates may run through a third protein. Some entries that bind do so weakly or less than the wild type. Where a sequence is shown, tags or fusion partners need not be part of it.

Amino acid sequences for entries named in this document (tags omitted).
UniProt Q9UQE7: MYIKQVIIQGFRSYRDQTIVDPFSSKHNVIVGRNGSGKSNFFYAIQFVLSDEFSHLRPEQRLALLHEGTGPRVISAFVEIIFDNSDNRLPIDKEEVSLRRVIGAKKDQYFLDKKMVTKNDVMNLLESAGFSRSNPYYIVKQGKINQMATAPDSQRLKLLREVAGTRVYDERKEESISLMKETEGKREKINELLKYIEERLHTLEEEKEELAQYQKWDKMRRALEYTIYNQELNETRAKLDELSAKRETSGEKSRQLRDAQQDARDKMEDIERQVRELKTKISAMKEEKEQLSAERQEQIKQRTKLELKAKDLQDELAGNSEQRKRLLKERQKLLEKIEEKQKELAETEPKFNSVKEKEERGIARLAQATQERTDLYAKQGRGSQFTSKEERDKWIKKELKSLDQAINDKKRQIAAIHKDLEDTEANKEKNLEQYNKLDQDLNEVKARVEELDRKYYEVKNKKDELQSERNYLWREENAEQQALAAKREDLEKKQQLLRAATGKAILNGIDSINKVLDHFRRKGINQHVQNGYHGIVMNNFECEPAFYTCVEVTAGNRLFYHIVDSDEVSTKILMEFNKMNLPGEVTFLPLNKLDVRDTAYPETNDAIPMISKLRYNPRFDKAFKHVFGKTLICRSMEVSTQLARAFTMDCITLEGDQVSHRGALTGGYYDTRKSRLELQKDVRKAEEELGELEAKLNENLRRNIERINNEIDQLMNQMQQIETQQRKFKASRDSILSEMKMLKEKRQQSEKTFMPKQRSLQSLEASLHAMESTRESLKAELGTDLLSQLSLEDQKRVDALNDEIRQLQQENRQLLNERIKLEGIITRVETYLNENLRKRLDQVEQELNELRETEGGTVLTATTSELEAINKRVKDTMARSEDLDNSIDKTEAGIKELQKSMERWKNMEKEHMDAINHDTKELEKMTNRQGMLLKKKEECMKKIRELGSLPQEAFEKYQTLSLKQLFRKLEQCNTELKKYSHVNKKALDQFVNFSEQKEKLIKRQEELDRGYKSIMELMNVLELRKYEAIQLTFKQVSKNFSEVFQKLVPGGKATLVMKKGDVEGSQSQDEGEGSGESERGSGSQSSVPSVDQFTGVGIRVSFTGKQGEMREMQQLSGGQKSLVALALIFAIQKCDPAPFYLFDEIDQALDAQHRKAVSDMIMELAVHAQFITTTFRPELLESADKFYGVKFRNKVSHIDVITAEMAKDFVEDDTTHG
UniProt Q96FF9: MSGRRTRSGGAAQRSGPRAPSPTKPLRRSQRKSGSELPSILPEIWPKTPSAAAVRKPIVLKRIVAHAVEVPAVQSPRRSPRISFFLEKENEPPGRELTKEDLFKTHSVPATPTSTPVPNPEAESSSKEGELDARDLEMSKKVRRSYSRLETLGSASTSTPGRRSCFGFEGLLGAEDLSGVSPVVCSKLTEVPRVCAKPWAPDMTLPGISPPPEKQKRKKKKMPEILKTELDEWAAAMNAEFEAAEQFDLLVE

What was measured:
[1] = molecular target: T1, Myc-STAG2 WT (human) (UniProt Q8N3U4); experiment: co-IP; anti-Myc beads, lysates of HeLa Tet-On cells transfected with Myc-STAG2 WT or mutants; 3 h at 4 °C; washes with lysis buffer containing 200 mM NaCl; blots for endogenous proteins
T1 sequence: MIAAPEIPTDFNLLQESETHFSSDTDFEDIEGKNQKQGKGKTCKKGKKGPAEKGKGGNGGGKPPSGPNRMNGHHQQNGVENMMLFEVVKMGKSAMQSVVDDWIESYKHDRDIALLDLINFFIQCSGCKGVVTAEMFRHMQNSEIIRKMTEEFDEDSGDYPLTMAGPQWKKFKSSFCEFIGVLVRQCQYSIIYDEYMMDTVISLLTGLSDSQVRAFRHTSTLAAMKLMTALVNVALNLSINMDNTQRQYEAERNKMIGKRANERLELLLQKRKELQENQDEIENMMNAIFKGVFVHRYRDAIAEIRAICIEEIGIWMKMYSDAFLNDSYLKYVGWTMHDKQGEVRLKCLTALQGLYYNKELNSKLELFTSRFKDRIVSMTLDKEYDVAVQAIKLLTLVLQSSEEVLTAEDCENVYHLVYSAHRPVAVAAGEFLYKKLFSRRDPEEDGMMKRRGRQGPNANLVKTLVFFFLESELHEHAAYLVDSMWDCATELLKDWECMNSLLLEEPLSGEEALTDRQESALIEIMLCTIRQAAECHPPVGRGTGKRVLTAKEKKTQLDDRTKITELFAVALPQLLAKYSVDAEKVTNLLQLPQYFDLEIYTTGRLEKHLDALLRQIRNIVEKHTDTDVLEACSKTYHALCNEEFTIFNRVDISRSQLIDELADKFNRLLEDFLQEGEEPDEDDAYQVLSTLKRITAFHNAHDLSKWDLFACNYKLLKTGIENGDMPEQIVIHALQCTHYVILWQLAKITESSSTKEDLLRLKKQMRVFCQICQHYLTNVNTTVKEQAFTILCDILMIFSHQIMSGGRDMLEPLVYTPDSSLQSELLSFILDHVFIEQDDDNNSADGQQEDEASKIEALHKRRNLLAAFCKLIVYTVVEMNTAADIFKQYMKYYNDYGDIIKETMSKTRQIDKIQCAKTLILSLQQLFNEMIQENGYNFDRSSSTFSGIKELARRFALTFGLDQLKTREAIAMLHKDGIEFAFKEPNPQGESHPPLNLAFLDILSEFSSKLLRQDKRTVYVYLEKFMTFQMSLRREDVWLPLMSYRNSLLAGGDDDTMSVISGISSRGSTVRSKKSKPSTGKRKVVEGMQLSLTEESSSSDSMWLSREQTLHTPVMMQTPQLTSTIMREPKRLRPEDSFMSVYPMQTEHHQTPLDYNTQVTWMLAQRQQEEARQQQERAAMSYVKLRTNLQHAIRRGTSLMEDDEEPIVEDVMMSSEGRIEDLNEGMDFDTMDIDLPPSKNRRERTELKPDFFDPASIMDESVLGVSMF

[2] = molecular target: T2, GST-WAPL(410–590) (human) (UniProt Q7Z5K2); experiment: pull-down; GST-SGO1(302–367) T346E or GST-WAPL(410–590) on Glutathione Sepharose 4B beads, incubated with the in vitro translated 35S-STAG2–SCC1(211–420) complex at 4 °C for 2 h; washed four times with TBS, 0.05% Tween 20; SDS-PAGE, phosphoimager; only the target purified
T2 sequence: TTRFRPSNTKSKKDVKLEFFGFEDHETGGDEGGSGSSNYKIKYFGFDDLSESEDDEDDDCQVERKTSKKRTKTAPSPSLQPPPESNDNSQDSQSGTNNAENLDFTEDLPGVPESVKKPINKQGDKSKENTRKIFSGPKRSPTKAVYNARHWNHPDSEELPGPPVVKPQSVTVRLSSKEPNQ

[3] = molecular target: T3, GST-SGO1(302–367) T346E (human) (UniProt Q5FBB7); experiment: as above
T3 sequence: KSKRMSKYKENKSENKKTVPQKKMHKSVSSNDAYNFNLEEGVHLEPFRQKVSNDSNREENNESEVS

## endogenous SMC3 (from UniProt Q9UQE7 1-1217)
[1]
  binding: binds

## endogenous SORORIN (from UniProt Q96FF9 1-252)
[1]
  binding: binds

B1: 35S-labeled STAG2–SCC1(211–420) complex, WT (complex, UniProt Q8N3U4-2 1-1268; O60216 211-420)
chain 1: T1 sequence
chain 2: YEDQYKDDNFGEGNDGGILDDKLISNNDGGIFDDPPALSEAGVMLPEQPAHDDMDEDDNVSMGGPDSPDSVDPVEPMPTMTDQTTLVPNEEEAFALEPIDITVKETKAKRKRKLIVDSVKELDSKTIRAQLSDYSDIVTTLDLAPPTKKLMMWKETGGVEKLFSLPAQPLWNNRLLKLFTRCLTPLVPEDLRKRRKGGEADNLDEFLKEF
modifications: 35S-methionine label | 35S-methionine label
[2]
  binding: binds
[3]
  binding: binds

B2: endogenous PDS5A (protein, UniProt Q29RF7 1-1337)
chain: MDFTAQPKPATALCGVVSADGKIAYPPGVKEITDKITTDEMIKRLKMVVKTFMDMDQDSEDEKQQYLPLALHLASEFFLRNPNKDVRLLVACCLADIFRIYAPEAPYTSHDKLKDIFLFITRQLKGLEDTKSPQFNRYFYLLENLAWVKSYNICFELEDCNEIFIQLFRTLFSVINNSHNKKVQMHMLDLMSSIIMEGDGVTQELLDSILINLIPAHKNLNKQSFDLAKVLLKRTVQTIEACIANFFNQVLVLGRSSVSDLSEHVFDLIQELFAIDPHLLLSVMPQLEFKLKSNDGEERLAVVRLLAKLFGSKDSDLATQNRPLWQCFLGRFNDIHVPVRLESVKFASHCLMNHPDLAKDLTEYLKVRSHDPEEAIRHDVIVTIITAAKRDLALVNDQLLGFVRERTLDKRWRVRKEAMMGLAQLYKKYCLHGEAGKEAAEKVSWIKDKLLHIYYQNSIDDKLLVEKIFAQYLVPHNLETEERMKCLYYLYASLDPNAVKALNEMWKCQNMLRSHVRELLDLHKQPTSEANCSAMFGKLMTIAKNLPDPGKAQDFVKKFNQVLGDDEKLRSQLELLISPTCSCKQADICVREIARKLANPKQPTNPFLEMVKFLLERIAPVHIDSEAISALVKLMNKSIEGTADDEEEGVSPDTAIRSGLELLKVLSFTHPTSFHSAETYESLLQCLRMEDDKVAEAAIQIFRNTGHKIETDLPQIRSTLIPILHQKAKRGTPHQAKQAVHCIHAIFTNKEVQLAQIFEPLSRSLNADVPEQLITPLVSLGHISMLAPDQFASPMKSVVANFIVKDLLMNDRSTGEKNGKLWSPDEEVSPEVLAKVQAIKLLVRWLLGMKNNQSKSANSTLRLLSAMLVSEGDLTEQKRISKSDMSRLRLAAGSAIMKLAQEPCYHEIITPEQFQLCALVINDECYQVRQIFAQKLHKALVKLLLPLEYMAIFALCAKDPVKERRAHARQCLLKNISIRREYIKQNPMATEKLLSLLPEYVVPYMIHLLAHDPDFTRSQDVDQLRDIKECLWFMLEVLMTKNENNSHAFMKKMAENIKLTRDAQSPDESKTNEKLYTVCDVALCVINSKSALCNADSPKDPVLPMKFFTQPEKDFCNDKSYISEETRVLLLTGKPKPAGVLGAVNKPLSATGRKPYVRSTGTETGSNINVNSELNPSTGNRSREQSSEAAETGVSENEENPVRIISVTPVKNIDPVKNKEINSDQATQGNISSDRGKKRTVTAAGAENIQQKTDEKVDESGPPAPSKPRRGRRPKSESQGNATKNDDLNKPINKGRKRAAVGQESPGGLEAGNAKAPKLQDLAKKAAPAERQIDLQR
[1]
  binding: binds

B3: endogenous WAPL (protein, UniProt Q7Z5K2 1-1190)
chain: MTSRFGKTYSRKGGNGSSKFDEVFSNKRTTLSTKWGETTFMAKLGQKRPNFKPDIQEIPKKPKVEEESTGDPFGFDSDDESLPVSSKNLAQVKCSSYSESSEAAQLEEVTSVLEANSKISHVVVEDTVVSDKCFPLEDTLLGKEKSTNRIVEDDASISSCNKLITSDKVENFHEEHEKNSHHIHKNADDSTKKPNAETTVASEIKETNDTWNSQFGKRPESPSEISPIKGSVRTGLFEWDNDFEDIRSEDCILSLDSDPLLEMKDDDFKNRLENLNEAIEEDIVQSVLRPTNCRTYCRANKTKSSQGASNFDKLMDGTSQALAKANSESSKDGLNQAKKGGVSCGTSFRGTVGRTRDYTVLHPSCLSVCNVTIQDTMERSMDEFTASTPADLGEAGRLRKKADIATSKTTTRFRPSNTKSKKDVKLEFFGFEDHETGGDEGGSGSSNYKIKYFGFDDLSESEDDEDDDCQVERKTSKKRTKTAPSPSLQPPPESNDNSQDSQSGTNNAENLDFTEDLPGVPESVKKPINKQGDKSKENTRKIFSGPKRSPTKAVYNARHWNHPDSEELPGPPVVKPQSVTVRLSSKEPNQKDDGVFKAPAPPSKVIKTVTIPTQPYQDIVTALKCRREDKELYTVVQHVKHFNDVVEFGENQEFTDDIEYLLSGLKSTQPLNTRCLSVISLATKCAMPSFRMHLRAHGMVAMVFKTLDDSQHHQNLSLCTAALMYILSRDRLNMDLDRASLDLMIRLLELEQDASSAKLLNEKDMNKIKEKIRRLCETVHNKHLDLENITTGHLAMETLLSLTSKRAGDWFKEELRLLGGLDHIVDKVKECVDHLSRDEDEEKLVASLWGAERCLRVLESVTVHNPENQSYLIAYKDSQLIVSSAKALQHCEELIQQYNRAEDSICLADSKPLPHQNVTNHVGKAVEDCMRAIIGVLLNLTNDNEWGSTKTGEQDGLIGTALNCVLQVPKYLPQEQRFDIRVLGLGLLINLVEYSARNRHCLVNMETSCSFDSSICSGEGDDSLRIGGQVHAVQALVQLFLERERAAQLAESKTDELIKDAPTTQHDKSGEWQETSGEIQWVSTEKTDGTEEKHKKEEEDEELDLNKALQHAGKHMEDCIVASYTALLLGCLCQESPINVTTVREYLPEGDFSIMTEMLKKFLSFMNLTCAVGTTGQKSISRVIEYLEHC
[1]
  binding: binds

B4: 35S-labeled STAG2 p.Ser327Asn–SCC1(211–420) complex (complex, UniProt Q8N3U4-2 1-1268; O60216 211-420)
chain 1: T1 sequence with S327N
chain 2: B1 chain 2
modifications: 35S-methionine label | 35S-methionine label
[2]
  binding: binds
[3]
  binding: binds
